# Some of the results follow.
# B1: OS9-MRH (Homo sapiens), Q13438 (protein)
# chain: IPELLSPMRDAPCLLKTKDWWTYEFCYGRHIQQYHMEDSEIKGEVLYLGYYQSAFDWDDETAKASKQHRLKRYHSQTYGNGSKCDLNGRPREAEVRFLCDEGAGISGDYIDRVDEPLSCSYVLTIRTPRLCPHPLLRPPPSAAPQAI
# Experiments:
# Test in all cases: glycan array binding signal (z-score within array); higher = stronger binding
# Conditions in all cases: glycan notation: IUPAC condensed, linker removed
# [1] = biological target: Fuc(a1-2)[GalNAc(b1-3)]Gal
# Outline: (§1)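 Arrays were curated from the Consortium for Functional Glycomics database, 3228 in total, and kept only where the protein sequence was available. Binding is expressed as a within-array Z-score. This score was averaged across arrays of the same protein sequence at different concentrations or buffers and across linkers, and negative values can be read as non-binding.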
# Fuc(a1-3)GlcNAc = biological target: Fuc(a1-3)GlcNAc
# Outline: as §1
# [2] = biological target: Fuc(a1-3)[Gal(b1-4)]Glc6S
# Outline: as §1
# [3] = biological target: Fuc(a1-3)[Gal(b1-4)]GlcNAc
# Outline: as §1
# [4] = biological target: Fuc(a1-3)[Gal(b1-4)]GlcNAc(b1-2)Man
# Outline: as §1
# [5] = biological target: Fuc(a1-3)[Gal(b1-4)]GlcNAc(b1-2)Man(a1-3)[Fuc(a1-3)[Gal(b1-4)]GlcNAc(b1-2)Man(a1-6)]Man(b1-4)GlcNAc(b1-4)GlcNAc
# Outline: as §1
# [6] = biological target: Fuc(a1-3)[Gal(b1-4)]GlcNAc(b1-2)Man(a1-3)[Fuc(a1-3)[Gal(b1-4)]GlcNAc(b1-2)Man(a1-6)]Man(b1-4)GlcNAc(b1-4)[Fuc(a1-6)]GlcNAc
# Outline: as §1
# [7] = biological target: Fuc(a1-3)[Gal(b1-4)]GlcNAc(b1-3)Gal(b1-3)[Fuc(a1-4)]GlcNAc
# Outline: as §1
# [8] = biological target: Fuc(a1-3)[Gal(b1-4)]GlcNAc(b1-3)Gal(b1-4)[Fuc(a1-3)]GlcNAc
# Outline: as §1
# [9] = biological target: Fuc(a1-3)[Gal(b1-4)]GlcNAc(b1-3)Gal(b1-4)[Fuc(a1-3)]GlcNAc(b1-3)Gal(b1-4)[Fuc(a1-3)]GlcNAc
# Outline: as §1
# [10] = biological target: Fuc(a1-3)[Gal(b1-4)]GlcNAc(b1-3)GalNAc
# Outline: as §1
# [11] = biological target: Fuc(a1-3)[Gal(b1-4)]GlcNAc(b1-6)GalNAc
# Outline: as §1
# [12] = biological target: Fuc(a1-3)[Gal(b1-4)]GlcNAc(b1-6)[Gal(b1-3)GlcNAc(b1-3)]Gal(b1-4)Glc
# Outline: as §1
# [13] = biological target: Fuc(a1-3)[Gal(b1-4)]GlcNAc6S
# Outline: as §1
# [14] = biological target: Fuc(a1-3)[Gal3S(b1-4)]Glc
# Outline: as §1
# [15] = biological target: Fuc(a1-3)[Gal3S(b1-4)]GlcNAc
# Outline: as §1
# [16] = biological target: Fuc(a1-3)[Gal3S(b1-4)]GlcNAc6S
# Outline: as §1
# [17] = biological target: Fuc(a1-3)[GalNAc(b1-4)]GlcNAc
# Outline: as §1
# [18] = biological target: Fuc(a1-3)[GalNAc(b1-4)]GlcNAc6S
# Outline: as §1
# Fuc(a1-4)GlcNAc = biological target: Fuc(a1-4)GlcNAc
# Outline: as §1
# Fuc(b1-3)GlcNAc = biological target: Fuc(b1-3)GlcNAc
# Outline: as §1
# Gal(a1-2)Gal = biological target: Gal(a1-2)Gal
# Outline: as §1
# Gal(a1-3)Gal = biological target: Gal(a1-3)Gal
# Outline: as §1
# Gal(a1-3)Gal(b1-3)GlcNAc = biological target: Gal(a1-3)Gal(b1-3)GlcNAc
# Outline: as §1
# [19] = biological target: Gal(a1-3)Gal(b1-3)GlcNAc(b1-2)Man
# Outline: as §1
# [20] = biological target: Gal(a1-3)Gal(b1-3)GlcNAc(b1-2)Man(a1-3)[Gal(a1-3)Gal(b1-3)GlcNAc(b1-2)Man(a1-6)]Man(b1-4)GlcNAc(b1-4)GlcNAc
# Outline: as §1
# [21] = biological target: Gal(a1-3)Gal(b1-3)GlcNAc(b1-3)GalNAc
# Outline: as §1
# [22] = biological target: Gal(a1-3)Gal(b1-3)GlcNAc(b1-6)GalNAc
# Outline: as §1
# [23] = biological target: Gal(a1-3)Gal(b1-3)[Fuc(a1-4)]GlcNAc(b1-2)Man(a1-3)[Gal(a1-3)Gal(b1-3)[Fuc(a1-4)]GlcNAc(b1-2)Man(a1-6)]Man(b1-4)GlcNAc(b1-4)GlcNAc
# Outline: as §1
# Gal(a1-3)Gal(b1-4)Glc = biological target: Gal(a1-3)Gal(b1-4)Glc
# Outline: as §1
# Gal(a1-3)Gal(b1-4)GlcNAc = biological target: Gal(a1-3)Gal(b1-4)GlcNAc
# Outline: as §1
# [24] = biological target: Gal(a1-3)Gal(b1-4)GlcNAc(b1-2)Man
# Outline: as §1
# [25] = biological target: Gal(a1-3)Gal(b1-4)GlcNAc(b1-2)Man(a1-3)[Gal(a1-3)Gal(b1-4)GlcNAc(b1-2)Man(a1-6)]Man(b1-4)GlcNAc(b1-4)GlcNAc
# Outline: as §1
# [26] = biological target: Gal(a1-3)Gal(b1-4)GlcNAc(b1-3)GalNAc
# Outline: as §1
# [27] = biological target: Gal(a1-3)Gal(b1-4)GlcNAc(b1-6)GalNAc
# Outline: as §1
# [28] = biological target: Gal(a1-3)Gal(b1-4)[Fuc(a1-3)]GlcNAc
# Outline: as §1
# [29] = biological target: Gal(a1-3)Gal(b1-4)[Fuc(a1-3)]GlcNAc(b1-2)Man(a1-3)[Gal(a1-3)Gal(b1-4)[Fuc(a1-3)]GlcNAc(b1-2)Man(a1-6)]Man(b1-4)GlcNAc(b1-4)GlcNAc
# Outline: as §1
# Gal(a1-3)GalNAc = biological target: Gal(a1-3)GalNAc
# Outline: as §1
# [30] = biological target: Gal(a1-3)[Gal(a1-4)]Gal(b1-4)GlcNAc
# Outline: as §1
# [31] = biological target: Gal(a1-4)Gal(b1-3)GlcNAc(b1-2)Man(a1-3)[Gal(a1-4)Gal(b1-3)GlcNAc(b1-2)Man(a1-6)]Man(b1-4)GlcNAc(b1-4)GlcNAc
# Outline: as §1
# Gal(a1-4)Gal(b1-4)Glc = biological target: Gal(a1-4)Gal(b1-4)Glc
# Outline: as §1
# Gal(a1-4)Gal(b1-4)GlcNAc = biological target: Gal(a1-4)Gal(b1-4)GlcNAc
# Outline: as §1
# [32] = biological target: Gal(a1-4)Gal(b1-4)GlcNAc(b1-2)Man(a1-3)[Gal(a1-4)Gal(b1-4)GlcNAc(b1-2)Man(a1-6)]Man(b1-4)GlcNAc(b1-4)GlcNAc
# Outline: as §1
# [33] = biological target: Gal(a1-4)Gal(b1-4)GlcNAc(b1-3)Gal(b1-4)Glc
# Outline: as §1
# Gal(a1-4)GlcNAc = biological target: Gal(a1-4)GlcNAc
# Outline: as §1
binder,measurement,setting,value
B1,glycan array binding signal (z-score),[1],2.09
same,glycan array binding signal (z-score),Fuc(a1-3)GlcNAc,-1.28
same,glycan array binding signal (z-score),[2],-1.74
same,glycan array binding signal (z-score),[3],0.745
same,glycan array binding signal (z-score),[4],-0.53
same,glycan array binding signal (z-score),[5],1.98
same,glycan array binding signal (z-score),[6],-0.779
same,glycan array binding signal (z-score),[7],-0.355
same,glycan array binding signal (z-score),[8],1.74
same,glycan array binding signal (z-score),[9],2.81
same,glycan array binding signal (z-score),[10],-1.07
same,glycan array binding signal (z-score),[11],-0.452
same,glycan array binding signal (z-score),[12],-0.303
same,glycan array binding signal (z-score),[13],-2.11
same,glycan array binding signal (z-score),[14],0.856
same,glycan array binding signal (z-score),[15],-0.514
same,glycan array binding signal (z-score),[16],1.39
same,glycan array binding signal (z-score),[17],-0.024
same,glycan array binding signal (z-score),[18],-1.25
same,glycan array binding signal (z-score),Fuc(a1-4)GlcNAc,0.44
same,glycan array binding signal (z-score),Fuc(b1-3)GlcNAc,-0.384
same,glycan array binding signal (z-score),Gal(a1-2)Gal,0.273
same,glycan array binding signal (z-score),Gal(a1-3)Gal,0.749
same,glycan array binding signal (z-score),Gal(a1-3)Gal(b1-3)GlcNAc,0.114
same,glycan array binding signal (z-score),[19],0.298
same,glycan array binding signal (z-score),[20],1.34
same,glycan array binding signal (z-score),[21],-0.967
same,glycan array binding signal (z-score),[22],0.317
same,glycan array binding signal (z-score),[23],2.15
same,glycan array binding signal (z-score),Gal(a1-3)Gal(b1-4)Glc,0.502
same,glycan array binding signal (z-score),Gal(a1-3)Gal(b1-4)GlcNAc,-0.284
same,glycan array binding signal (z-score),[24],0.419
same,glycan array binding signal (z-score),[25],-0.193
same,glycan array binding signal (z-score),[26],-0.842
same,glycan array binding signal (z-score),[27],0.493
same,glycan array binding signal (z-score),[28],0.407
same,glycan array binding signal (z-score),[29],1.16
same,glycan array binding signal (z-score),Gal(a1-3)GalNAc,-0.391
same,glycan array binding signal (z-score),[30],0.456
same,glycan array binding signal (z-score),[31],-0.307
same,glycan array binding signal (z-score),Gal(a1-4)Gal(b1-4)Glc,-0.287
same,glycan array binding signal (z-score),Gal(a1-4)Gal(b1-4)GlcNAc,0.847
same,glycan array binding signal (z-score),[32],-0.731
same,glycan array binding signal (z-score),[33],-0.569
same,glycan array binding signal (z-score),Gal(a1-4)GlcNAc,1.18
